For 23 molecules, Inhibition results are on record in ChEMBL document CHEMBL4513154, “CO-ADD screening of Jain University (India) compounds”.

The Inhibition is the relative decrease from the control value, in per cent.

Each structure is given as a SMILES string. This is one part of the list. Results with a measured potency or affinity are listed apart.

The subject of the test is Acinetobacter baumannii. The conditions noted are these: Concentration 32 ug.mL-1; ASSAY_TEST Inhibition of Bacterial Growth; detection method Absorption (OD600); MEDIA CAMHB; plate type 384well; NBS; CORNING #3640; time 18 hr.
With `N#Cc1ccccc1-c1ccc(Cn2c(-c3cscn3)nc3ccccc32)cc1`, the Inhibition is -1.38%.

Consider `CC(C)c1ccc(Cn2c(-c3cscn3)nc3c(Cl)cccc32)cc1`, for which the Inhibition worked out at 2.59%.

Regarding `N#Cc1ccccc1-c1ccc(Cn2c(-c3cscn3)nc3c(Cl)cccc32)cc1`, the Inhibition came to 6.28%.

As to `Nc1nc(Nc2ccccc2)sc1-c1nc2ccccc2c(=O)n1-c1ccc(Cl)cc1`, the Inhibition is on record as -0.07%.

In the case of `N=C(Nc1ccccc1Cl)c1cscn1`, the Inhibition worked out at 12.72%.

Regarding `CCc1ccc(Nc2nc(N)c(-c3nc4ccccc4c(=O)n3-c3ccc(Cl)cc3)s2)cc1`, the Inhibition came out at 5.63%.

Regarding `Nc1nc(Nc2ccc(Cl)cc2)sc1-c1nc2ccccc2c(=O)n1-c1ccccc1`, the Inhibition was -6.41%.

As to `Clc1cccc2[nH]c(-c3cscn3)nc12`, the Inhibition is 8.5%.

For `Clc1ccc2c(c1)nc(-c1cscn1)n2Cc1ccccc1`, the Inhibition is -10.04%.

Take `CCc1ccc(-n2c(-c3sc(Nc4ccccc4)nc3N)nc3ccccc3c2=O)cc1`: the Inhibition was 2.37%.

As to `N#Cc1ccc(Cn2c(-c3cscn3)nc3c(Cl)cccc32)cc1`, the Inhibition is listed as -7.1%.

Take `N=C(Nc1ccccc1)c1cscn1`: the Inhibition is on record as 14.87%.

As to `Fc1cc(Cn2c(-c3cscn3)nc3c(Cl)cccc32)cc(C(F)(F)F)c1`, the Inhibition was 9.98%.

`N#Cc1ccccc1-c1ccc(Cn2c(-c3cscn3)nc3ccc(Cl)cc32)cc1`: the Inhibition was -5.43%.

Turning to `N#Cc1ccccc1-c1ccc(Cn2c(-c3cscn3)nc3cc(Cl)ccc32)cc1`, the Inhibition is on record as -8.36%.

On to `Nc1nc(Nc2ccccc2)sc1-c1nc2ccccc2c(=O)n1-c1ccccc1`, for which the Inhibition is recorded as 6.57%.

As for `O=[N+]([O-])c1ccc(Cn2c(-c3cscn3)nc3ccccc32)cc1`, the Inhibition was -2.78%.

For the molecule `CCc1ccc(Nc2nc(N)c(-c3nc4ccccc4c(=O)n3-c3ccccc3)s2)cc1`, the Inhibition is recorded as 6.46%.

As for `Clc1ccc2nc(-c3cscn3)n(Cc3ccccc3)c2c1`, the Inhibition is on record as -5.33%.

As to `Cn1c(-c2cscn2)nc2cc(Cl)ccc21`, the Inhibition is reported as -5.79%.

As for `Clc1cccc2c1nc(-c1cscn1)n2Cc1ccccc1`, the Inhibition was -8.66%.

Consider `Cn1c(-c2cscn2)nc2c(Cl)cccc21`, for which the Inhibition is on record as -5.33%.

For the molecule `CCc1ccc(Nc2nc(N)c(-c3nc4ccccc4c(=O)n3-c3ccc(CC)cc3)s2)cc1`, the Inhibition is on record as -1.27%.
